This assay has as its system Staphylococcus aureus. Kind of assay: Antibacterial activity against Staphylococcus aureus expressing NorA by double-dilution technique. It is filed as functional. The method, boiled down: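 Double-dilution series of each compound against each strain, reported as MIC. Runs done in duplicate or triplicate.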

Turning to `CCC[C@@H]1C[C@@H](C(=O)N[C@@H]([C@H]2O[C@H](SC)[C@H](O)[C@@H](O)[C@H]2O)[C@H](C)Cl)N(C)C1` [CLINDAMYCIN], the minimum inhibitory concentration (MIC) is below 0.3 µg/mL.

What is called MIC is the lowest concentration found to suppress growth. The low end stands for greater potency, the high end for weaker potency.

Values taken from ChEMBL document CHEMBL2417431, “Synthesis and evaluation of hetero- and homodimers of ribosome-targeting antibiotics: antimicrobial activity, in vitro inhibition of translation, and drug resistance” (J Med Chem, 2013).
